# Experimental data taken from the supplement of paper PMC8497498.
# ± gives the standard deviation of the averaged measurements. Some of the results follow. The data scatter; read single values as rough.
# Test system: Plasmodium vivax liver stage (primary human hepatocyte culture)
# Experiment: schizont net growth area inhibition (% inhibition); higher = more active against liver schizonts
# Details: 10 µM; assay mode: Prophylactic (treated before or shortly after infection), fixed day 6 post-infection
row,Compound,schizont net growth area inhibition
1,Cc1nc(Nc2ncc(N3CCN(C)C(C)C3)c(Nc3cc(C)n(C)n3)n2)cc(C2CC2)c1F (configuration not stated),91.4
2,O=C(c1ccc(F)cc1)N(CCNc1ccccc1)c1ccccc1,9.8
3,CCOc1ccc(C2N(C)c3ccccc3N2C)cc1,-114
4,COc1ccc(-c2cc(=O)oc3c4c(ccc23)OCN(Cc2ccc(F)cc2)C4)cc1,-6.4
5,Cc1cc(C(=O)Nc2ccc(-c3ccccc3)cc2)no1,-55.6
6,CNC(=O)c1cc(S(=O)(=O)N2CCN(c3ccccn3)CC2)cs1,59
7,CC(C)n1nc(-c2cc3c(Cl)cccc3[nH]2)c2c(N)ncnc21,58.1
8,CCCCN(CCCC)CCC(O)c1cc2c(Cl)cc(Cl)cc2c2cc(C(F)(F)F)ccc12 (configuration not stated),-77.3
9,COCCNC(=O)c1ccc(OC2CCN(Cc3ccc(F)c(F)c3)CC2)c(Cl)c1,45.2
10,Cc1cnc(N2CCN[C@@H](Cc3ccccc3)C2)nc1Oc1ccc(-n2ccnc2)cc1,-8.1
11,COc1ccc(CNC2CCN(c3ccc(NC(=O)c4cccc(Cl)c4)cc3)CC2)cc1OC,-51.7
12,O=C(Nc1nc(-c2ccccn2)cs1)c1ccccc1Br,87.2
13,CC1=Nc2ccc(Cl)cc2C(O)(c2ccc(C)cc2)N1CCN1CCCCC1 (configuration not stated),3
14,COc1ccc2nc3cc(Cl)ccc3c(Nc3cc(CN4CCCC4)c(O)c(CN4CCCC4)c3)c2n1,92.2
15,COc1ccc2nc(C)cc(OCC(=O)NCc3ccccc3)c2c1,37.8
16,OC(CNC1CCCCC1)Cn1c2ccc(I)cc2c2cc(I)ccc21 (configuration not stated),-17.4
17,COc1ccc(NC(=O)C2c3ccccc3C(=O)N(CC(C)C)C2c2cccs2)cc1 (configuration not stated),49
18,CNc1nnc(Sc2cnn(-c3ccccc3)c(=O)c2Cl)s1,-71.8
19,N#CCN(CCCCN1CCN(c2ccc(F)cc2)CC1)C(=O)OCc1ccccc1,26.1
20,CC(C)(C)CC(C)(C)NCC(O)COc1ccc(Cl)cc1Cl (configuration not stated),39.9
21,CCOc1cc2c(cc1OCC)C(c1cc(OC)c(O)cc1Cl)NCC2 (configuration not stated),22.6
22,COc1cccc(-c2nn(C)c3sc(C(=O)NCCN4CCN(c5ccccc5F)CC4)cc23)c1,14.6

# Same assay, conditions: 10 µM; assay mode: Radical Cure (treated from day 5 post-infection for 3 days), fixed day 8 post-infection
row,Compound,schizont net growth area inhibition
1,Cc1ccc2nc(Cl)c(CNCc3cccs3)cc2c1,-98.9
2,CC(C)(CN)c1nc(-c2ccc(Cl)c(O)c2)c(-c2ccnc(N)n2)[nH]1,-17.8
3,O[C@H](c1cc(C(F)(F)F)nc2c(C(F)(F)F)cccc12)[C@@H]1CCCCN1,55.4 ± 52
4,CCOC(=O)c1cnc2c(C)cc(C)cc2c1Nc1ccc(OC)c(OC)c1,-17.6
5,Nc1nc(O)c(Br)c(-c2ccccc2)n1,-8.2
6,O=C(NC1CCN(Cc2ccccc2)CC1)c1cc(-c2ccncc2)nc2ccc(Cl)cc12,-80.5
7,OC[C@H]1O[C@@H](n2c3ccc(Cl)cc3c3c(-c4cc5ccccc5o4)ncnc32)C(O)[C@H]1O (some centres not stated),-5.1
8,Nc1ncnc2c1ncn2C[C@@H](O)[C@@H](O)C(=O)O,-54.5
9,CNc1cc(C)nc(C2CN(C(=O)c3n[nH]c4ccccc34)CCO2)c1 (configuration not stated),-64.2
10,Cc1ccc(NC(=O)CC2COc3ccccc3O2)cc1Cl (configuration not stated),-66.4
11,COc1cc2cc(C(=O)Nc3ccccc3)c(N)nc2cc1OC,45.7
12,CCc1ccc(C(NCc2nc(N)nc(N(C)C)n2)C(C)C)cc1 (configuration not stated),-127
13,OC(CNCC1CCCO1)Cn1c2ccc(Cl)cc2c2cc(Cl)ccc21 (configuration not stated),-21.5
14,c1ccc(Cn2c(N=Nc3c(Nc4ccccc4)ccc4ccccc34)nc3ccccc32)cc1,40.8
15,Oc1ccccc1CN1CCC2(CCCN(Cc3ccccc3F)C2)C1 (configuration not stated),-23.9
16,Cc1c(C)n(Cc2ccc(F)cc2)c2ccc(C(=O)NCc3ccco3)cc12,6.6
17,CC(C)N=C(N)N=C(N)Nc1ccc(Cl)cc1,65.6
18,Cc1cc(OCC(=O)NCc2ccccc2)c2cc(Br)ccc2n1,-52.6
19,Cc1nc(Nc2ncc(N3CCN(C)C(C)C3)c(Nc3cc(C)n(C)n3)n2)cc(C2CC2)c1F (configuration not stated),87.8
20,O=C(c1ccc(F)cc1)N(CCNc1ccccc1)c1ccccc1,-114

row,Compound,schizont net growth area inhibition
1,CCOc1ccc(C2N(C)c3ccccc3N2C)cc1,-31.5
2,COc1ccc(-c2cc(=O)oc3c4c(ccc23)OCN(Cc2ccc(F)cc2)C4)cc1,19
3,Cc1cc(C(=O)Nc2ccc(-c3ccccc3)cc2)no1,-75.9
4,CNC(=O)c1cc(S(=O)(=O)N2CCN(c3ccccn3)CC2)cs1,-75.9
5,CC(C)n1nc(-c2cc3c(Cl)cccc3[nH]2)c2c(N)ncnc21,41
6,CCCCN(CCCC)CCC(O)c1cc2c(Cl)cc(Cl)cc2c2cc(C(F)(F)F)ccc12 (configuration not stated),39.7
7,COCCNC(=O)c1ccc(OC2CCN(Cc3ccc(F)c(F)c3)CC2)c(Cl)c1,37.8
8,Cc1cnc(N2CCN[C@@H](Cc3ccccc3)C2)nc1Oc1ccc(-n2ccnc2)cc1,23.9
9,COc1ccc(CNC2CCN(c3ccc(NC(=O)c4cccc(Cl)c4)cc3)CC2)cc1OC,58.8
10,O=C(Nc1nc(-c2ccccn2)cs1)c1ccccc1Br,35
11,CC1=Nc2ccc(Cl)cc2C(O)(c2ccc(C)cc2)N1CCN1CCCCC1 (configuration not stated),-13.7
12,COc1ccc2nc3cc(Cl)ccc3c(Nc3cc(CN4CCCC4)c(O)c(CN4CCCC4)c3)c2n1,51.4
13,COc1ccc2nc(C)cc(OCC(=O)NCc3ccccc3)c2c1,-49
14,OC(CNC1CCCCC1)Cn1c2ccc(I)cc2c2cc(I)ccc21 (configuration not stated),-20.7
15,COc1ccc(NC(=O)C2c3ccccc3C(=O)N(CC(C)C)C2c2cccs2)cc1 (configuration not stated),-19.4
16,CNc1nnc(Sc2cnn(-c3ccccc3)c(=O)c2Cl)s1,25.4
17,N#CCN(CCCCN1CCN(c2ccc(F)cc2)CC1)C(=O)OCc1ccccc1,-41.7
18,CC(C)(C)CC(C)(C)NCC(O)COc1ccc(Cl)cc1Cl (configuration not stated),32.3
19,CCOc1cc2c(cc1OCC)C(c1cc(OC)c(O)cc1Cl)NCC2 (configuration not stated),-62.7
20,COc1cccc(-c2nn(C)c3sc(C(=O)NCCN4CCN(c5ccccc5F)CC4)cc23)c1,-26.2
